Laboratory results from US11213508B2, “Compositions comprising urolithins and uses thereof for the stimulation of insulin secretion” (Centre National de la Recherche Scientifique (CNRS), priority 2013, dated 2022).
Some entries share one result that the patent states for a list of compounds. For at least one compound, name, drawing or mass did not settle the structure.

Tested on: INS-1 insulin-secreting β-cells
Test: Glibenclamide-stimulated insulin secretion in INS-1 cells
Type: cell-based
Conditions: 1.4 mmol·L^−1 glucose + 0.01 μmol·L^−1 glibenclamide
Description: The insulin-secreting cell line INS-1 (a gift from Professor C. B. Wollheim) was cultured in RPMI-1640, supplemented with 10% fetal calf serum (FCS), 100 U·mL^−1 penicillin, 100 μg·mL^−1 streptomycin, 2 mmol·L^−1 L-glutamine, 10 mmol·L^−1 HEPES, 1 mmol·L^−1 sodium pyruvate, and […] 2-mercaptoethanol, as previously described by Youl et al. (2010). Cells were seeded in 24-well plates (4×10^5 cells per well) and were used for experiments after 5 days of culture.
Before the treatment, RPMI medium was removed and the cells were washed twice with HEPES-balanced Krebs-Ringer bicarbonate buffer (KRB) containing (in mmol·L^−1): 123 NaCl, 5.4 KCl, 1.3 KH2PO4, 2.7 MgSO4, 2.9 CaCl2, 5 NaHCO3 and 20 HEPES, pH 7.5, with 2 g·L^−1 bovine serum albumin (KRB/BSA). […] Insulin concentration in cell supernatants was determined using the homogeneous time resolved fluorescence technology (HTRF), according to the manufacturer's instructions (HTRF insulin assay kit, Cisbio International, Bagnols-sur-Ceze, France). […] When these two fluorophores bind to insulin molecules, the two antibodies come into close proximity, allowing fluorescence resonance energy transfer (FRET) to occur between the Eu^3+-Cryptate and the XL665. […]
Material and methods were the same as described in example 1. […] Insulin concentration in cell supernatants was determined as described in Example 1.

Structure (SMILES) | maximal response, stimulation as compared to glibenclamide alone
O=c1oc2c(O)c(O)ccc2c2cc(O)c(O)cc12 [Urolithin D, urolithin D] | 150-160%
O=c1oc2cc(O)ccc2c2ccc(O)cc12 [Urolithin A, urolithin A] | 150-160%
